Structures can show the parent of a compound that is named as a salt. This is one part of the list. This data set is noisy: repeats of one test often differ as much as different tests do.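 JEG3 cells stably carry tetracycline-induced wild-type human LRH-1, a heavily sumoylated nuclear receptor. APOC3 and MUC1 are SUMO-sensitive transcripts, raised by SUMO-less LRH-1 or UBC9 knockdown, measured by RT-qPCR against TBP and DMSO controls. A robust Z-score above +2 or below -2 marked a primary hit before toxicity and TBP filtering.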

The subject of this assay is JEG3 expressing hLRH-1. The experiment in a line: MUC1 transcript change (ddCt vs TBP and DMSO), Z-score over library; higher = higher MUC1 expression. The settings on record: 10 µM; time (hr): 24.
Turning to `CC1(C)C(C=C(Cl)Cl)C1C(=O)OCc1cccc(Oc2ccccc2)c1` (configuration not stated) [permethrin], the “MUC1 transcript change (Z-score)” value came out at 1.44.
Next, `CCN1C[C@]2(COC)[C@H](O)C[C@H](OC)[C@@]34[C@@H]5C[C@@]6(O)[C@H](OC(=O)c7ccccc7)[C@@H]5[C@@](OC(C)=O)([C@@H]([C@H](OC)[C@H]23)[C@@H]14)[C@@H](O)[C@@H]6OC` [aconitine]: 0.68; `NC(=O)CS(=O)C(c1ccccc1)c1ccccc1` (configuration not stated) [modafinil]: 0.506; `CNC(=O)Oc1ccc2c(c1)[C@]1(C)CCN(C)[C@@H]1N2C` [(-)-Physostigmine]: 0.187.
For `C=C(C)C1CNC(C(=O)O)C1CC(=O)O` (configuration not stated) [kainic acid] the value was -0.358; for `CC[C@@H](c1cccc(O)c1)[C@@H](C)CN(C)C` [tapentadol hydrochloride], 0.387.
Next, `O=c1c2ccccc2[se]n1-c1ccccc1` [ebselen]: 1.15; `NCC(O)c1ccc(O)cc1` (racemic) [(±)-Octopamine hydrochloride]: 0.729; `N=C1NC(=O)N2CC12` (configuration not stated) [imexon]: 2.44.
As for `Cc1cccc(C)c1NC1=NCCCS1` [Xylazine hydrochloride], the “MUC1 transcript change (Z-score)” value was -0.00037.
As to `C=C[C@H]1CN2CC[C@H]1C[C@@H]2[C@H](O)c1ccnc2ccccc12` [cinchonine], the “MUC1 transcript change (Z-score)” value came to 0.799.
Regarding `C#C[C@@H]1CC2C3CCC4=C[C@@H](OC(C)=O)CCC4C3CC[C@]2(C)[C@H]1OC(C)=O` (some centres not stated) [ethynodiol diacetate], the “MUC1 transcript change (Z-score)” value was -0.501.
Take `C[C@@H]1O[C@@H](O[C@H]2C[C@@H](O)[C@]3(CO)[C@H]4[C@H](O)C[C@]5(C)[C@@H](C6=CC(=O)OC6)CC[C@]5(O)[C@@H]4CC[C@]3(O)C2)[C@H](O)[C@H](O)[C@H]1O` [ouabain]: the “MUC1 transcript change (Z-score)” value is -0.382.
With `C[C@]12CC[C@H]3[C@@H](CC[C@@]45O[C@@H]4C(O)=C(C#N)C[C@]35C)[C@@H]1CC[C@@H]2O` [trilostane], the “MUC1 transcript change (Z-score)” value is -0.0585.
In the case of `COc1ccc(CCN2CCC(Nc3nc4ccccc4n3Cc3ccc(F)cc3)CC2)cc1` [astemizole], the “MUC1 transcript change (Z-score)” value was found to be 0.894.
Take `O=[N+]([O-])O[C@@H]1CO[C@H]2[C@@H]1OC[C@@H]2O` [isosorbide mononitrate]: the “MUC1 transcript change (Z-score)” value is -0.0407.
Next, `COc1ccc(Cc2nccc3cc(OC)c(OC)cc23)cc1OC` [Papaverine hydrochloride]: -2.33; `C[N+]1(C)C2CCC1CC(OC(=O)C(CO)c1ccccc1)C2` (configuration not stated) [methylatropine nitrate]: 1.21; `CNCC(=O)c1ccc(O)c(O)c1` [adrenolone hydrochloride]: 0.0646.
With `COc1cc2c(cc1OC)[C@@]13CCN4CC5=CCO[C@H]6CC(=O)N2[C@H]1[C@H]6[C@H]5C[C@H]43` [brucine], the “MUC1 transcript change (Z-score)” value was 0.754.
For `C[N+]1(C)C2CC(OC(=O)[C@@H](CO)c3ccccc3)CC1C1OC12` (stereo in doubt) [methscopolamine bromide] the value was 0.528; for `CC(C)(C)NCC(O)c1cc(Cl)c(N)c(Cl)c1` (configuration not stated) [clenbuterol hydrochloride], -0.246.
Regarding `CCN(C(C)=O)c1cccc(-c2ccnc3c(C#N)cnn23)c1` [zaleplon], the “MUC1 transcript change (Z-score)” value was 0.0394.
On to `COC(=O)C1=CCCN(C)C1` [Arecoline hydrobromide], for which the “MUC1 transcript change (Z-score)” value is 0.413.
For `Oc1noc2c1CCNC2` [THIP hydrochloride] the value was -0.925; for `COc1cc([C@@H]2c3cc4c(cc3[C@H](O)[C@H]3COC(=O)[C@H]23)OCO4)cc(OC)c1OC` [podofilox], -0.447.
As for `CC(=O)O[C@H]1C[C@H](O[C@H]2[C@@H](O)C[C@H](O[C@H]3[C@@H](O)C[C@H](O[C@H]4CC[C@@]5(C)[C@H](CC[C@@H]6[C@@H]5C[C@@H](O)[C@]5(C)[C@@H](C7=CC(=O)OC7)CC[C@]65O)C4)O[C@@H]3C)O[C@@H]2C)O[C@H](C)[C@H]1O[C@@H]1O[C@H](CO)[C@@H](O)[C@H](O)[C@H]1O` [lanatoside c], the “MUC1 transcript change (Z-score)” value was -0.941.
Next, `O=[N+]([O-])OCC(CO[N+](=O)[O-])O[N+](=O)[O-]` [nitroglycerin]: 1.33.
Take `CCC1(C2=NCCN2)Cc2ccccc2O1` (configuration not stated) [efaroxan]: the “MUC1 transcript change (Z-score)” value was 0.0047.
For `CC[C@H]1CN2CCC1C[C@@H]2[C@@H](O)c1ccnc2ccc(OC)cc12` (some centres not stated) [hydroquinidine] the value was 1.27; for `CC[C@@H](CO)NC(=O)[C@@H]1C=C2c3cccc4c3c(cn4C)C[C@H]2N(C)C1` [methysergide maleate], 0.645.
Take `CCN(C)C(=O)Oc1cccc([C@H](C)N(C)C)c1` [rivastigmine tartrate]: the “MUC1 transcript change (Z-score)” value was determined as 0.5.
For `COc1ccc2c(c1OC)C(=O)O[C@@H]2[C@H]1c2cc3c(cc2CCN1C)OCO3` [hydrastine (1r, 9s)] the value was -0.084; for `C[C@]12CC[C@H](O)CC1=CCC1C2CC[C@]2(C)C(=O)CC[C@@H]12` (some centres not stated) [prasterone], -0.56; for `C=C[C@H]1CN2CC[C@H]1C[C@@H]2[C@@H](OC(=O)OCC)c1ccnc2ccc(OC)cc12` [quinine ethyl carbonate], 0.52.
Take `CCCCCCCCCCCCCCCC[n+]1ccccc1` [cetylpyridinium chloride]: the “MUC1 transcript change (Z-score)” value is 0.69.
Consider `c1ccc2c(c1)Nc1ccccc1S2` [phenothiazine], for which the “MUC1 transcript change (Z-score)” value is -0.536.
Consider `[NH2][Pt]1([NH2])[O]C(=O)C2(CCC2)C(=O)[O]1` [carboplatin], for which the “MUC1 transcript change (Z-score)” value is 1.05.
For `c1ccc2c(c1)OCC(C1=NCCN1)O2` (configuration not stated) [idazoxan hydrochloride] the value was -0.898.
Next, `CCOP(=S)(OCC)Oc1nc(Cl)c(Cl)cc1Cl` [chlorpyrifos]: -0.478; `CC(=O)NC1CCSC1=O` (configuration not stated) [citiolone]: -0.561.
As to `CNC(=O)Oc1ccccc1OC(C)C` [propoxur], the “MUC1 transcript change (Z-score)” value is -0.663.
Next, `COC(=O)C(c1ccccc1)C1CCCCN1` (configuration not stated) [methylphenidate hydrochloride]: 0.758; `CCOc1cc(C=O)ccc1O` [ethyl vanillin]: -0.554.
Next, `C=C1C[C@@H]2[C@H](CC[C@]3(C)C(=O)CC[C@@H]23)[C@@]2(C)C=CC(=O)C=C12` [exemestane]: 0.0289.
For `CCNC1(c2cccs2)CCCCC1=O` (configuration not stated) [tiletamine hydrochloride] the value was -0.239; for `O=[N+]([O-])c1ccc([As](=O)(O)O)cc1` [nitarsone], 1.23; for `NN=C(N)N` [Aminoguanidine hemisulfate], -0.722.
In the case of `CCC1(CC)C(=O)C=CNC1=O` [pyrithyldione], the “MUC1 transcript change (Z-score)” value is 0.212.
For the molecule `CN1C2CCC1CC(OC(=O)C(CO)c1ccccc1)C2` (configuration not stated) [Atropine sulfate], the “MUC1 transcript change (Z-score)” value came to 0.799.
Turning to `O=C1CCO1` [beta-propiolactone], the “MUC1 transcript change (Z-score)” value was -0.849.
For the molecule `CCC1(CC)C(=O)NC(=O)NC1=O` [barbital], the “MUC1 transcript change (Z-score)” value was -0.903.
For the molecule `CN1CC(CNC(=O)OCc2ccccc2)C[C@H]2c3cccc4c3c(cn4C)CC21` (stereo in doubt) [metergoline], the “MUC1 transcript change (Z-score)” value is -0.843.
In the case of `CC(C)c1c(CN(C)C(C)Cc2ccccc2)n(C)n(-c2ccccc2)c1=O` (configuration not stated) [famprofazone], the “MUC1 transcript change (Z-score)” value turned out to be 0.408.
Turning to `CC[C@H]1CN2CCc3cc(OC)c(OC)cc3C2C[C@@H]1CC1NCCc2cc(OC)c(OC)cc21` (some centres not stated) [emetine], the “MUC1 transcript change (Z-score)” value amounted to 6.08.
Next, `COc1ccc(OC)c(C(O)C(C)N)c1` (configuration not stated) [Methoxamine hydrochloride]: -0.184; `NCCCNCCSP(=O)(O)O` [amifostine]: 0.137; `Cc1cccc(C)c1NC(=O)CN1CCCC1=O` [nefiracetam]: 0.491.
As for `CCCCCCCCC(=O)NCc1ccc(O)c(OC)c1` [N-Vanillylnonanamide], the “MUC1 transcript change (Z-score)” value was -0.0367.
Next, `CCCCCCCCCCNCCC.CCCN.CCCNCCCCCC[N+](C)(C)C.ClCC1CO1` [colesevalam hydrochloride (high mol wt copolymer @10mg/ml)]: 0.874; `CN(C)C(=O)Oc1ccc[n+](C)c1` [Pyridostigmine bromide]: -0.0612; `C[C@]12CCC(=O)C=C1C=CC1C2CC[C@@]2(C)C1CC[C@@]2(O)CCC(=O)O` (some centres not stated) [canrenoic acid, potassium salt]: 0.517.
Take `C[C@H](N)[C@H](O)c1ccccc1` [L(-)-Norephedrine]: the “MUC1 transcript change (Z-score)” value is 1.44.
For `CN1CCc2cc3c(cc2C1O)OCO3` (configuration not stated) [hydrastinine hydrochloride] the value was -0.23; for `CN1[C@H]2C[C@H](OC(=O)[C@H](CO)c3ccccc3)C[C@@H]1[C@@H](O)C2` [anisodamine hydrobromide], -0.145; for `O=C(O)CCCO` [sodium oxybate], 1.03.
For `CNCC(O)c1ccc(O)cc1` (configuration not stated) [oxedrine] the value was -0.49; for `CC[C@@H](CO)NC(=O)[C@@H]1C=C2c3cccc4[nH]cc(c34)C[C@H]2N(C)C1` [methylergonovine maleate], 0.489; for `CN1CCC[C@@H]1Cc1c[nH]c2cc(CCS(=O)(=O)c3ccccc3)ccc12` [eletriptan hydrobromide], 0.394.
Next, `CC(C)C[C@H]1C(=O)N2CCC[C@H]2[C@]2(O)O[C@](NC(=O)[C@@H]3C=C4c5cccc6[nH]c(Br)c(c56)C[C@H]4N(C)C3)(C(C)C)C(=O)N12` [bromocriptine mesylate]: 0.287; `CC(C)=CC1C(C(=O)OCc2cccc(Oc3ccccc3)c2)C1(C)C` (configuration not stated) [phenothrin]: 0.293; `CN1C(=O)CCS(=O)(=O)C1c1ccc(Cl)cc1` (configuration not stated) [Chlomezanone]: 0.675.
As to `C#CC1(O)CCC2C3CCC4=CC(=O)CCC4(C)C3CCC21C` (configuration not stated) [ethisterone], the “MUC1 transcript change (Z-score)” value stood at 0.908.
Turning to `CNC(C)(C)Cc1ccccc1` [mephentermine sulfate], the “MUC1 transcript change (Z-score)” value amounted to 1.09.
For `C[C@@H]1CC[C@H]2[C@@H](C)C(=O)O[C@@H]3O[C@@]4(C)CC[C@@H]1[C@]32OO4` [artemisinin] the value was -0.188; for `c1ccc2nc(N3CCNCC3)ccc2c1` [Quipazine dimaleate], -0.0671.
Next, `CC1[C@H](C)OC(=O)CC(O)CC(O)CC(O)CCC(O)C(O)C[C@]2(O)CC(O)C(C(=O)O)C(CC(OC3O[C@H](C)[C@@H](O)[C@H](N)[C@@H]3O)/C=C/C=C/C=C/C=C/CC/C=C/C=C/[C@H](C)[C@H]1O)O2` (some centres not stated) [nystatin]: 0.255.

These data come from the supplement of paper PMC4749390.
